Reference: US20250171821A1, “HIF-1 ACTIVATORS AND USES THEREOF” (Ramot at Tel-Aviv University Ltd., priority 2022, published 2025)
“Also recorded” adds a separate entry of the source.

Test system: HGF cells
Experiment: Autofluorescence control without antibodies
Assay type: cell-based, human
Conditions: 5 μM ML228, without DAPI, β-tubulin and Collagen-I antibodies

## c1ccc(-c2ccc(CNc3nc(-c4ccccn4)nnc3-c3ccccc3)cc2)cc1 [ML228, N-([1,1′-Biphenyl]-4-ylmethyl)-6-phenyl-3-(2-pyridinyl)-1,2,4-triazin-5-amine]
  autofluorescence: does not impart any detectable autofluorescence; also recorded: does not have autofluorescence
